Experimental data: PubChem BioAssay AID493246 (Drosophila RNAi Screening Center, 2011)
The deposit covers about 21,000 reagents; below is a random part of those that have a named target and a result. Over the whole deposit, 429 (2%) got an active call. 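Values are raw and not normalised between plates; calls rest on per-plate z-scores that were not deposited.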 Unmarked entries are inactive. Reagents against one gene are numbered here. No sequences are given here. Not given: the amount of reagent, the time to read-out.

Test: 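Identify essential fly genes by loss of cell viability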 (primary screen)
Cells: Drosophila Kc and S2R+ cells
Reagents: long dsRNA against Drosophila genes
Read-out: 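Raw, unnormalised count of remaining cells in each well; per-plate z-scores of cell number underlie the calls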
Scale: Kc cell number and S2R+ cell number: higher = more cells remaining
Hit rule: 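Active when the per-plate z-score of cell number is 3 or more in the direction of fewer cells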

With knock-down of RpL5, the record shows Kc cell number, rep 1 = 1.13e6; Kc cell number, rep 2 = 1.18e6; S2R+ cell number, rep 1 = 6.63e5; S2R+ cell number, rep 2 = 3.19e5.
For CG12496 the deposit lists Kc cell number, rep 1 = 1.49e6; Kc cell number, rep 2 = 1.54e6; S2R+ cell number, rep 1 = 9.99e5; S2R+ cell number, rep 2 = 1.10e6.
With knock-down of CG42615 the results were Kc cell number, rep 1 = 1.41e6; Kc cell number, rep 2 = 1.49e6; S2R+ cell number, rep 1 = 9.63e5; S2R+ cell number, rep 2 = 1.10e6.
beta-Spec scored Kc cell number, rep 1 = 1.68e6; Kc cell number, rep 2 = 1.68e6; S2R+ cell number, rep 1 = 1.05e6; S2R+ cell number, rep 2 = 1.19e6.
Depletion of X11L #1 gave: Kc cell number, rep 1 = 1.72e6; Kc cell number, rep 2 = 1.76e6; S2R+ cell number, rep 1 = 1.14e6; S2R+ cell number, rep 2 = 1.24e6.
Against X11L #2, the values are Kc cell number, rep 1 = 1.54e6; Kc cell number, rep 2 = 1.40e6; S2R+ cell number, rep 1 = 1.11e6; S2R+ cell number, rep 2 = 1.23e6.
With knock-down of ush the results were Kc cell number, rep 1 = 1.46e6; Kc cell number, rep 2 = 1.45e6; S2R+ cell number, rep 1 = 5.89e5; S2R+ cell number, rep 2 = 7.77e5.
CG7990 #1 showed Kc cell number, rep 1 = 1.21e6; Kc cell number, rep 2 = 1.44e6; S2R+ cell number, rep 1 = 1.10e6; S2R+ cell number, rep 2 = 1.11e6.
Knock-down of CG7990 #2 resulted in: Kc cell number, rep 1 = 1.60e6; Kc cell number, rep 2 = 1.64e6; S2R+ cell number, rep 1 = 9.90e5; S2R+ cell number, rep 2 = 1.09e6.

Already shown: 2 of the entries above.
X11L #1 — Kc cell number, rep 1: 1.72e6; Kc cell number, rep 2: 1.76e6; S2R+ cell number, rep 1: 1.14e6; S2R+ cell number, rep 2: 1.24e6
X11L #2 — Kc cell number, rep 1: 1.54e6; Kc cell number, rep 2: 1.40e6; S2R+ cell number, rep 1: 1.11e6; S2R+ cell number, rep 2: 1.23e6

Additional entries follow.
For CG11123, the entry reads Kc cell number, rep 1 = 1.66e6; Kc cell number, rep 2 = 1.70e6; S2R+ cell number, rep 1 = 1.26e6; S2R+ cell number, rep 2 = 1.38e6.
After knock-down of Erasp the results were Kc cell number, rep 1 = 1.53e6; Kc cell number, rep 2 = 1.58e6; S2R+ cell number, rep 1 = 1.02e6; S2R+ cell number, rep 2 = 9.66e5.
Depletion of RpS25 resulted in: Kc cell number, rep 1 = 1.31e6; Kc cell number, rep 2 = 1.31e6; S2R+ cell number, rep 1 = 1.06e6; S2R+ cell number, rep 2 = 1.17e6.
CG9630 showed Kc cell number, rep 1 = 1.49e6; Kc cell number, rep 2 = 1.60e6; S2R+ cell number, rep 1 = 1.18e6; S2R+ cell number, rep 2 = 1.21e6.
After knock-down of SF1 the results were Kc cell number, rep 1 = 1.54e6; Kc cell number, rep 2 = 1.68e6; S2R+ cell number, rep 1 = 1.03e6; S2R+ cell number, rep 2 = 1.24e6.
Pa1 showed Kc cell number, rep 1 = 1.49e6; Kc cell number, rep 2 = 1.46e6; S2R+ cell number, rep 1 = 9.40e5; S2R+ cell number, rep 2 = 1.06e6.
Depletion of CG2187 gave: Kc cell number, rep 1 = 1.59e6; Kc cell number, rep 2 = 1.51e6; S2R+ cell number, rep 1 = 9.79e5; S2R+ cell number, rep 2 = 1.07e6.
After knock-down of CG15446, the record shows Kc cell number, rep 1 = 1.55e6; Kc cell number, rep 2 = 1.60e6; S2R+ cell number, rep 1 = 1.13e6; S2R+ cell number, rep 2 = 1.27e6.
With knock-down of CG18563 the results were Kc cell number, rep 1 = 1.79e6; Kc cell number, rep 2 = 1.85e6; S2R+ cell number, rep 1 = 1.40e6; S2R+ cell number, rep 2 = 1.55e6.
After knock-down of CG17141 the results were Kc cell number, rep 1 = 1.50e6; Kc cell number, rep 2 = 1.43e6; S2R+ cell number, rep 1 = 9.61e5; S2R+ cell number, rep 2 = 1.04e6.
Against wb #1, the entry reads Kc cell number, rep 1 = 7.88e5 (active); Kc cell number, rep 2 = 9.81e5; S2R+ cell number, rep 1 = 4.20e5; S2R+ cell number, rep 2 = 5.32e5.
Knock-down of wb #2 resulted in: Kc cell number, rep 1 = 1.59e6; Kc cell number, rep 2 = 1.67e6; S2R+ cell number, rep 1 = 1.34e6; S2R+ cell number, rep 2 = 1.49e6.
